Hit rate of the full screen: of about 53,000 sequences, about 3,700 (7%) were called active.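 Rule for the calls: active = gene knockdowns whose robust z-score for IL-1 alpha signal is at least 2 or at most -2, so actives lie on both sides; inactive = the rest.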 Some of the results follow.
Experiment: Components of the Cytosolic LPS Sensing Pathway: Gene Identification via Genome-wide siRNA Screen;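 note: robust z of the log signal after scaling to non-targeting control siRNA wells of the plate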
Details: RAW264.7 macrophages, IL-1a HTRF, actives lie on both sides, screened at 100 nM (by protocol), cells primed 5 h with Pam3CSK4 first
Procedure, shortened: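 Three distinct siRNAs per gene were tested singly at 100 nM in RAW264.7 macrophages. Following Pam3CSK4 priming and 24 hour LipidA transfection, IL-1a secretion was read by HTRF.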

Sequence	z-score
GCUGUCUGUGGUUAUUGGGTT against Rhbdd3	inactive: -1.52
GGUUACUAAGUGAAGUAAATT against Actr1b	inactive: -1.28
CGGUAUUUCAUCCUGGAUATT against Plekha1	inactive: 0.403
GGAAAAAAAAAAGGACGAGTT against Smap1	inactive: -0.374
CCUAUUAUGUCAACAUUGATT against Il6st	inactive: 1.28
GGUUGGCUGGAAUUUGACATT against Bmp6	inactive: 0.186
GGGAGAAACCUGUGCAAAUTT against Serpinb6c	inactive: 0.459
GCAACAAUAUGAAUAAUGGTT against Robo1	inactive: -0.168
GUACCUCAGAGCUCUGCAUTT against Helt	inactive: -0.292
GGGAAAUGCACUUAAAUGATT against Tox3	inactive: -0.337
CGCGGUCAUCUUUGUCUUCTT against Agap1	inactive: 0.81
CCAUGUCCAAUGAGGACUUTT against Htr1b	inactive: 0.111
GGAUGAUGAGUUUCUCACATT against Pkd1l2	inactive: -0.229
CGAGGAUGACUUGAUGACCTT against Ajm1	active: -2.18
GGAAGCUGGCCAUAGAGAATT against Sall4	inactive: 0.733
GCAUUAACAAAUAUCGUGUTT against Sin3a	inactive: 0.748
UAUUCAACCUCGGUCUCAGTT against Olfr473	inactive: 0.241
GGGUUGAACCUAAAGUCUATT against Akr1cl	inactive: -1.4
CCCGUGCCUUCCUUAAAGCTT against Ggt6	inactive: 0.327
GCCCAUCGAUCCUAAGGAATT against Noct	inactive: 0.538
GCAGGAAAUCUAAUGCACUTT against Gsdma3	inactive: -0.359
GGGCAAGUUCCAUCUCCUUTT against Cdc42ep2	active: -2.2

Sequence	z-score
GGAGAAUGCACAGGUCAUGTT against Ubxn4	inactive: -0.038
GGCAGAAAGCAGAAACAGUTT against Mok	inactive: -0.901
GCGACUAAUCCUUUGCUACTT against Cdc42bpb	inactive: 0.938
GGACGGUUCCUUCAUAGUATT against Poglut2	inactive: -0.0538
GGUUCUUCAAACUAGACCGTT against Mov10	inactive: 0.128
GCCAAUGGGUUGGUAAGAUTT against Fndc9	inactive: 0.151
GCGACAUGGGUUAAAAGAATT against Nr4a3	inactive: -1.16
GGUAUAUUGGGACCUUUAUTT against Fcgr1	inactive: 1.08
GGUAAUUGGGCGACACCAUTT against Sh3bgrl2	inactive: -0.43
GGAGGAAUUCUCCAAGCUGTT against Hsd3b1	inactive: -1.26
GGUGGAGUCUACAAUUCUCTT against Ctsb	inactive: 0.314
CCAUUAGCUCCAUUCUUUCTT against Atp6v0d2	inactive: 0.29
GGUUAUAGAUGUAAAGUCUTT against Isg20l2	inactive: -0.847
CAUGUUAUCACUUUUUGGCTT against Coq2	inactive: 0.93
GGAGUUUUUACAGAAAAUGTT against Scin	inactive: 0.202
GCCAUCAGAAUUCGAUACATT against 2900092C05Rik	inactive: 1.68
GGUUCAGAUCCAUCACUCGTT against Rab39b	inactive: -1.19
CCCUGGGAAGUGGAUUCAUTT against Olfr694	inactive: 1.03
GUGAGACUAAGUUACGCGATT against Olfr1501	inactive: 0.675
GGGUGGAAGCUUUUUAAUATT against Memo1	inactive: -0.522
GAUUUGAGACCCAGAUCAUTT against Gzmm	active: 2.08
GGACAUAGAGAACAUCAUCTT against Cabp7	active: 4.02

Sequence	z-score
GGUCUUUUUGCCUGGUUUUTT against Akap10	inactive: 1.92
GGACAUGCUAUAAUGUAUUTT against Zkscan1	inactive: 0.376
GCUUCUCAGACAAAUAUGGTT against Plin4	inactive: -1.2
GCUUUUAUGCAGCUAAACGTT against Ecpas	inactive: -0.714
GCGGCACUUUAUCAUUAUCTT against Hint3	inactive: 0.398
GGAAGGUAUUACGUCAAAUTT against Sec24a	inactive: 0.368
GGAAAGGAGAACAAAGUUCTT against Tnfsf8	inactive: -0.823
GCCCGACCUGUUGAGAAGATT against Znhit3	inactive: 1.43
GGUUUCUGCGUCUUCACCCTT against Nr3c1	inactive: -1.28
CCAGAGAGCCUUUUGUUUUTT against Mrfap1	inactive: 0.524
GGCACAUGGUUUCUGACCUTT against Clcf1	inactive: 0.927
GAAGCUCAUAGUGACUGUCTT against Vmn1r25	inactive: -1.26
GGACAUCUUUUCAAACGUGTT against Acap1	inactive: -1.09
GGAUUGGUUUAGUCAAUAATT against Psmc4	active: -2.03
GGCAGUUUUUGGACUGUCCTT against Olfr556	inactive: -0.21
GCUAAGAGAGAACAUUGAGTT against Lrr1	inactive: 1.41
CAGAUCCAUCUCUUAAUGGTT against Olfr204	inactive: 0.383
GGGAUCUGGAUGAGGUCAATT against Tcf7l1	active: 3.02
GGGAAAGCACUCCAACACATT against Frem1	active: -2.12
GCUGCUGAUUCAAUUCUAUTT against Ago4	inactive: 1.49
GGCCAUCAUUGUCACCGUGTT against Adra2a	inactive: 0.955
GCGGCCAGUUCGUUAUAUUTT against Abi2	inactive: 0.19

Sequence	z-score
CCUGGAUAAAGAUUUUAGATT against Olfr722	inactive: -0.486
CCAUGCAGCAAAUCGAGUUTT against Klk1b5	inactive: 0.912
GGCUAGCCUUGAAUUUAUGTT against Trp53rkb	inactive: 0.0703
GGACCACCAGACAUUCUUUTT against St7	inactive: -0.0638
GCCACUACUUGAUCUAUCATT against Cd34	inactive: 0.944
CCCAAUUGGAAACCUGAACTT against Actn3	inactive: -1.65
GGCAAAAGGAAGGUAGCCUTT against Cdyl	inactive: 0.574
GGAGAUGUCAAUCAAACCCTT against Tmem26	inactive: -1.11
GGCAGAGAUGGUGUUGAUGTT against Col1a2	inactive: -0.342
GCAACGAGUGUGUUUUCUGTT against Spink10	active: 2.25
GGCAGAAUUGUGGAGUUCGTT against Cblc	inactive: -0.213
CCGUUGUAUUUAUGUUUGCTT against Mrgprb5	inactive: 0.52
GGUGACAGUCACCAAAGAATT against Clstn1	inactive: -1.21
CCACCAUGUUUUAUUCCAATT against Glod5	inactive: -0.82
GCUUAUGUUUCUGCCACUCTT against Olfr1136	inactive: 0.124
GGGAGGAAUAGCACAGUCATT against Olfr1440	inactive: 0.0568
GCACAUUUGGACAACCAAUTT against AU018091	inactive: -0.973
GGUCACUGUCCACAUUUAUTT against Pitrm1	inactive: 0.764
CGAACUCUGCUACUACACATT against Zfp846	inactive: 0.738
GCAUUAUCAGAACCAAGGGTT against Spdye4a	inactive: -1.06
GGUGGAUGUCACCAGCAAGTT against Sh3gl1	inactive: 0.168
GGGUGAAUUAAAUUAGUUGTT against Aadacl2fm1	inactive: -0.104

Sequence	z-score
GGAAAUGUCAUGACCUUGATT against Tnfaip6	inactive: -1.89
GCAUUUAGAAGAAUCCGCCTT against Hao2	active: 2.01
GGUUCUAGGAAAAUUAGGUTT against Olfr575	inactive: 1.19
CCGUAGUAGAGAAAUUACATT against Exoc6	inactive: 0.419
GGUCCCUGGACCAAAGAAGTT against Myb	inactive: -0.578
GGAUUCAGCUCUCAUCAGATT against A930012O16Rik	inactive: -0.444
GCCACGCACUAUAAAGAUUTT against Cyth1	inactive: -0.532
GGUAGAGCUCACAAGAUCATT against Gmpr2	inactive: -0.176
GGGAGCAAAUUAGAGAAAUTT against Gsk3b	inactive: 0.884
GGAAAUGCGCCAUGAGUUGTT against Soga3	inactive: -0.124
GGUUUUCACAAGACCUCUGTT against Ptgdr	inactive: 0.904
GGCUUCGCUAACCAUAGUUTT against Prtg	inactive: -1.1
CCAAGCUUACACUAGUGUUTT against Cdk6	inactive: -0.429
GGUCACUCCCACAUUUCACTT against Spred1	inactive: -1.73
CGAUUCUGAAGCUCCCAUCTT against Olfr684	inactive: 0.638
GGAAAAGAGUGAUUUCCUATT against Fsd1l	inactive: 1.29
GGUGGAGUUUGACGAUUCCTT against Car5a	inactive: 0.697
GGAAGUGGUUUGAGCCAUCTT against Slc37a4	inactive: -1
GGAACCCUCCGAAGACUAUTT against Pml	inactive: 0.97

Look-ups from the list.
z-score, GGUUUUCACAAGACCUCUGTT against Ptgdr reads inactive: 0.904
z-score, GGUGGAGUUUGACGAUUCCTT against Car5a reads inactive: 0.697
z-score, GGUCACUCCCACAUUUCACTT against Spred1 reads inactive: -1.73
